Screen size: about 400,000 compounds; about 13,000 (3.2%) were called active. The inconclusive results got no clear call from the source; some entries with a clear call stand among them for comparison. Calls follow the shape of the dose curve; as a rule, active = well fitted cell-killing curve with a large enough effect; inconclusive = small, poorly fitted or top-dose-only effect, or effect the other way; inactive = flat fitted curve, though single readings scatter. Potencies beside an inconclusive call are fits to weak or partial responses and may not hold up.
assay: qHTS assay for MDR1-selective chemotherapeutics: Primary screen using the drug-selected MDR subline cells KB-V1; settings: KB-V1 MDR cells viability, CellTiter-Glo, 72 h; series mostly up to 46.1 µM; also: nearly all actives have a fitted effect of over 60% in size
Summary of the method: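 Luminescent ATP read-out (CellTiter-Glo, 10 min) measures survival of drug-selected KB-V1 MDR cells after 72 h, 37 degrees C compound exposure. Medium: phenol-red-free DMEM, 10% FBS. Values from fitted concentration-response curves.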
Potency is read from the fitted curve at half-maximal effect.

Question: Which Potency does the source give for O=C(O)CSCC(=O)N(c1ccccc1)c1ccccc1 here?
Answer: The Potency was inconclusive: 14.6 µM [rising, partial curve].

Question: Which Potency does the source give for Cc1ccc(C(=O)CCS(=O)(=O)c2ccc(Cl)cc2)cc1 here?
Answer: Its Potency is “inactive”.

Question: Which Potency does the source give for CCCc1nc2c(=O)n(C)c(=O)nc-2n(C)n1 here?
Answer: The Potency was active: 7.31 µM.

Question: For CC(C)CNC(=O)C(=O)NCC(c1ccc2c(c1)OCO2)N1CCOCC1 (centres undefined), which Potency is on record?
Answer: The Potency was “inactive”.

Question: Which Potency does the source give for CC(=O)Nc1ccc(S(=O)(=O)N(C)C2CCN(C)CC2)cc1 here?
Answer: Its Potency is “inactive”.

Question: For c1ccc(-c2nc(NCCCN3CCOCC3)c3ccccc3n2)cc1, which Potency is on record?
Answer: Its Potency is active: 6.51 µM.

Question: With Cc1cc(C)c(C(=O)/C=C/c2cccs2)c(=O)[nH]1 as the compound, how does the Potency read?
Answer: The Potency was inconclusive: 23.1 µM [rising, single point].

Question: Which Potency does the source give for Cc1ccccc1-n1nnnc1SCC(=O)Nc1ccc(N2CCN(C)CC2)cc1 here?
Answer: Its Potency is inconclusive: 32.6 µM [cytotoxic, partial curve, poor fit].

Question: Which Potency does the source give for CCN(CC)C(=O)c1cccc(-c2csc(C(O)c3ccc(F)cc3)n2)c1 (centres undefined) here?
Answer: Its Potency is inconclusive: 8.2 µM [cytotoxic, partial curve, poor fit].

Question: With COc1ccc(NC(=O)CN(Cc2ccccc2)Cc2ccccc2)cc1S(N)(=O)=O as the compound, how does the Potency read?
Answer: Its Potency is active: 20.6 µM.

Question: With Cc1cc(C)c2[nH]c(=O)c(C(c3nnnn3C(C)(C)C)N3CCN(C(=O)c4ccco4)CC3)cc2c1 (centres undefined) as the compound, how does the Potency read?
Answer: Its Potency is “inactive”.

Question: For COc1ccc(NC(=O)C2(C)CCCN(C(C)C)C2)cc1OC (centres undefined), which Potency is on record?
Answer: The Potency was inconclusive: 16.4 µM [rising, partial curve].

Question: For Cc1ccc(S(=O)(=O)c2ccc([N+](=O)[O-])o2)cc1, which Potency is on record?
Answer: Its Potency is active: 13 µM.

Question: With c1ccc(-c2csc(N3CCSCC3)n2)cc1 as the compound, how does the Potency read?
Answer: The Potency was inconclusive: 0.58 µM [cytotoxic, full curve, poor fit].

Question: For O=C(COC(=O)CC12CC3CC(CC(Br)(C3)C1)C2)NC(=O)NCc1ccco1, which Potency is on record?
Answer: The Potency was inconclusive: 9.2 µM [rising, partial curve, poor fit].

Question: For COc1ccc(-c2cc(NC(C)=O)c3ncc(-c4ccccc4)n3c2)c(OC)c1, which Potency is on record?
Answer: Its Potency is inconclusive: 11.6 µM [cytotoxic, partial curve, poor fit].

Question: With N#Cc1c(-c2cccnc2)c2c([nH]c1=O)-c1ccccc1OC2 as the compound, how does the Potency read?
Answer: Its Potency is “inactive”.

Question: Which Potency does the source give for Cc1cc(CN(C)C(=O)c2cc(COc3ccc(F)cc3Cl)on2)n[nH]1 here?
Answer: Its Potency is active: 20.6 µM.

Question: For C[C@@H]1CN([C@@H](C)CO)C(=O)Cc2cc(NC(=O)Nc3cccc4ccccc34)ccc2O[C@@H]1CN(C)Cc1ccc(C(F)(F)F)cc1, which Potency is on record?
Answer: The Potency was inconclusive: 29.1 µM [cytotoxic, single point].

Question: Which Potency does the source give for Cc1ccc(S(=O)(=O)N(C)C)cc1NC(=S)NC(C)CCC(C)C (centres undefined) here?
Answer: Its Potency is inconclusive: 20.6 µM [cytotoxic, partial curve].

Question: For COc1c(F)c(F)c(C(=O)Nc2ccc3oc(-c4ccncc4)nc3c2)c(F)c1F, which Potency is on record?
Answer: The Potency was inconclusive: 13 µM [rising, partial curve].

Question: With COc1ccccc1[N+](=O)[O-] as the compound, how does the Potency read?
Answer: The Potency was “inactive”.

Question: With Cc1cccc(C)c1OCC(=O)Nc1c(C)nn(C)c1C as the compound, how does the Potency read?
Answer: The Potency was inconclusive: 25.9 µM [rising, single point].

Question: For CCCSc1nnc(-c2cccc(S(=O)(=O)N(C)C)c2)n1-c1cc(OC)ccc1OC, which Potency is on record?
Answer: The Potency was inconclusive: 0.58 µM [cytotoxic, full curve, poor fit].

Question: With Cc1ccc(NC(=S)NC2CC3CCCC(C2)N3Cc2cccs2)cc1 (centres undefined) as the compound, how does the Potency read?
Answer: Its Potency is inconclusive: 9.2 µM [cytotoxic, partial curve].

Question: For CCOC(=O)C1=C(C)OC(N)=C(C#N)C1c1cccs1 (centres undefined), which Potency is on record?
Answer: The Potency was “inactive”.

Question: For Cc1ccc(C)c(SCC(=O)Nc2cccc(S(=O)(=O)NC3=NCCCCC3)c2)c1, which Potency is on record?
Answer: The Potency was inconclusive: 11.6 µM [cytotoxic, partial curve].

Question: Which Potency does the source give for O=C(Nc1ccc(F)c(Cl)c1)Nc1ccc(Cl)cn1 here?
Answer: Its Potency is inconclusive: 18.4 µM [rising, single point].

Question: For CN1CCN(c2ccccc2NC(=O)COc2ccc(Cl)cc2)CC1, which Potency is on record?
Answer: Its Potency is inconclusive: 16.4 µM [cytotoxic, single point].

Question: For C=CCNCCOc1ccccc1-c1ccccc1, which Potency is on record?
Answer: Its Potency is inconclusive: 9.2 µM [cytotoxic, partial curve].

Question: With Cc1ccccc1N1CN(Cc2ccco2)CNC1=S as the compound, how does the Potency read?
Answer: Its Potency is inconclusive: 29.1 µM [rising, single point].

Question: For COc1ccccc1C1Nc2ccccc2-n2c(-c3ccccc3)c3c(=O)n(C)c(=O)n(C)c3c21 (centres undefined), which Potency is on record?
Answer: Its Potency is “inactive”.

Question: For Cc1cc(NC(=O)c2cccc(Cl)c2)ccc1-c1cc2ccccc2oc1=O, which Potency is on record?
Answer: The Potency was inconclusive: 1.64 µM [cytotoxic, full curve].

Question: For Cc1noc(-c2ccc(N3CCCCC3)c([N+](=O)[O-])c2)n1, which Potency is on record?
Answer: The Potency was “inactive”.

Question: With O=c1c2cnn(-c3ccccc3)c2ncn1Cc1ccccc1 as the compound, how does the Potency read?
Answer: Its Potency is active: 20.6 µM.

Question: For Cc1sc2ncnc(N3CCC(C(=O)Nc4ccccc4C(C)(C)C)CC3)c2c1C, which Potency is on record?
Answer: The Potency was inconclusive: 2.91 µM [cytotoxic, partial curve].

Question: With CCOCCCN(C(=O)c1ccco1)C(C(=O)NC1CCCC1)c1cccc(OC)c1OC (centres undefined) as the compound, how does the Potency read?
Answer: Its Potency is active: 16.4 µM.

Question: For O=c1cc(CCl)nc(Cc2c(Cl)cccc2Cl)[nH]1, which Potency is on record?
Answer: The Potency was inconclusive: 29.1 µM [cytotoxic, single point].

Question: Which Potency does the source give for O=C(c1ccc(C(F)(F)F)cc1)N1CCC(=O)N([C@H](COCc2ccccc2)Cc2ccccc2)CC1 here?
Answer: Its Potency is inconclusive: 23.1 µM [cytotoxic, single point].

Question: With Cc1noc(C)c1S(=O)(=O)NC(=O)C1(C)CCN1C(=O)Cc1ccc(-c2ccccc2)cc1 (centres undefined) as the compound, how does the Potency read?
Answer: Its Potency is inconclusive: 11.6 µM [rising, partial curve].

Question: With COc1ccc(NC(=O)CCC(=O)Nc2nnc(C(C)C)s2)cc1Cl as the compound, how does the Potency read?
Answer: The Potency was inconclusive: 6.51 µM [rising, partial curve].

Question: For COc1ccc(/C=N/Nc2nnc(Cc3ccccc3)c(=O)[nH]2)cc1, which Potency is on record?
Answer: The Potency was “inactive”.

Question: With CCc1ccccc1NC(=O)c1ccccc1Sc1ccc([N+](=O)[O-])cc1Cl as the compound, how does the Potency read?
Answer: The Potency was “inactive”.

Question: Which Potency does the source give for O=C(NCC(c1ccc2c(c1)OCO2)N1CCOCC1)c1cccc(Cl)c1 (centres undefined) here?
Answer: The Potency was inconclusive: 23.1 µM [cytotoxic, single point].

Question: For NC(=O)C1CC(=O)N(c2ccc(OCc3c(Cl)cccc3Cl)cc2)C1 (centres undefined), which Potency is on record?
Answer: The Potency was inconclusive: 23.1 µM [rising, single point].

Question: With COc1cc(C2C(C(=O)Nc3ccccc3C)=C(C)Nc3ncnn32)ccc1OCC(N)=O (centres undefined) as the compound, how does the Potency read?
Answer: The Potency was inconclusive: 18.4 µM [rising, single point].

Question: For CCOC(=O)c1sc(=S)n(-c2cccc(OC)c2)c1N, which Potency is on record?
Answer: The Potency was inconclusive: 17.8 µM [cytotoxic, single point].

Question: Which Potency does the source give for CCOC(=O)c1c(NC(=O)c2cc(-c3ccc(O)cc3)on2)sc(C(C)=O)c1C here?
Answer: The Potency was inconclusive: 25.9 µM [rising, single point].

Question: Which Potency does the source give for N#Cc1cccc(Nc2c3c(nc4ccccc24)CCCC3)c1 here?
Answer: The Potency was “inactive”.

Question: For CCCCCCCCN1C(=O)[C@H](CC(=O)NCCCN2CCCC2=O)C[C@@]2(C(=O)OC)CCCCC=C12, which Potency is on record?
Answer: Its Potency is inconclusive: 16.4 µM [cytotoxic, partial curve, poor fit].

Question: For CC(=O)Nc1ccc(C2(c3ccc(NC(C)=O)cc3)NC(=O)c3ccccc32)cc1, which Potency is on record?
Answer: Its Potency is inconclusive: 29.1 µM [rising, single point].

Question: For CN(C)c1ccc(S(=O)(=O)NCC(=O)N2CCN(S(=O)(=O)c3cccc(F)c3)CC2)cc1[N+](=O)[O-], which Potency is on record?
Answer: Its Potency is inconclusive: 18.4 µM [cytotoxic, partial curve, poor fit].

Question: For CN1CC(=O)N(CC(=O)Nc2cccc(S(=O)(=O)N3CCOCC3)c2)C1=O, which Potency is on record?
Answer: The Potency was “inactive”.

Question: For CN(Cc1cccs1)C(=O)c1cccc(S(=O)(=O)N2CCCCCC2)c1, which Potency is on record?
Answer: Its Potency is active: 18.4 µM.

Question: For COc1ccccc1Nc1nnc(SCc2nnc(-c3cc(OC)c(OC)c(OC)c3)o2)s1, which Potency is on record?
Answer: Its Potency is inconclusive: 20.6 µM [cytotoxic, partial curve].

Question: For Nc1ccc(N2CCN(c3ncc(C(F)(F)F)cc3Cl)CC2)c(C(F)(F)F)c1, which Potency is on record?
Answer: The Potency was inconclusive: 23.1 µM [cytotoxic, single point].

Question: Which Potency does the source give for CC(Oc1ccc(Cl)cc1Cl)C(=O)Nc1ccc(N2CCN(C)CC2)cc1 (centres undefined) here?
Answer: Its Potency is inconclusive: 29.1 µM [cytotoxic, single point].

Question: Which Potency does the source give for Fc1cccc(Cc2c(-c3cccc(Cl)c3)nc3ccc(Br)cn23)c1 here?
Answer: The Potency was “inactive”.

Question: Which Potency does the source give for COc1ccc(CCN(C)C(=S)Nc2ccc(SC(F)F)cc2)cc1OC here?
Answer: The Potency was inconclusive: 5.8 µM [cytotoxic, partial curve].

Question: With COC(=O)C1=C(C)NC(C)=C(C(=O)OC)C1C(=O)OC(C)C(=O)c1ccccc1 (centres undefined) as the compound, how does the Potency read?
Answer: The Potency was inconclusive: 23.1 µM [cytotoxic, single point].

Question: With Clc1ccc2c(N3CCCC3)ccnc2c1 as the compound, how does the Potency read?
Answer: Its Potency is inconclusive: 29.1 µM [cytotoxic, single point].

Question: Which Potency does the source give for CCC(C)NS(=O)(=O)c1ccc(S(=O)(=O)N(CCc2ccc(OC)c(OC)c2)Cc2cccs2)cc1 (centres undefined) here?
Answer: Its Potency is “inactive”.

Question: With CC(C)(C)NC(=O)C(Cc1ccccc1)NS(=O)(=O)c1ccc2c(c1)CCC(=O)N2 (centres undefined) as the compound, how does the Potency read?
Answer: The Potency was “inactive”.

Question: With CCCCNC(=O)C1CCC(Cn2c(=O)c3sccc3n(CC(=O)N3CCCC3)c2=O)CC1 (centres undefined) as the compound, how does the Potency read?
Answer: The Potency was “inactive”.

Question: For COc1ccc(C)cc1-n1nnnc1SCc1nc2ccccc2c(=O)[nH]1, which Potency is on record?
Answer: The Potency was active: 5.17 µM.

Question: With CCCCCn1c(=O)c(-c2nc3ccccc3[nH]2)c(O)c2ccccc21 as the compound, how does the Potency read?
Answer: The Potency was inconclusive: 18.4 µM [cytotoxic, partial curve].

Question: For Cc1cc(C)cc(NC(=O)C(=O)NCC(c2cccnc2)N2CCc3ccccc3C2)c1 (centres undefined), which Potency is on record?
Answer: The Potency was inconclusive: 5.8 µM [cytotoxic, full curve, poor fit].

Question: Which Potency does the source give for O=C(CN1C(=O)NC2(CCCC2)C1=O)Nc1ccccc1-c1ccccc1 here?
Answer: Its Potency is “inactive”.

Question: For Cc1cc(OCC(=O)NCCN2CCOCC2)cc(C)c1Cl, which Potency is on record?
Answer: Its Potency is inconclusive: 23.1 µM [rising, single point].

— PubChem BioAssay AID1347076 (National Center for Advancing Translational Sciences (NCATS), 2019)
